No constants are given. Whether binding was seen depends on the method and setting. Some binding calls cover weakened binding; strength is not graded here.

The chains behind the UniProt entries cited, without tags or fusion partners. Where a name states a change or a piece, a line headed by the entry shows the natural chain unless it says otherwise. A line that says so, or that is headed by a name, gives the form on record, which may keep a tag or linker.
UniProt Q15691: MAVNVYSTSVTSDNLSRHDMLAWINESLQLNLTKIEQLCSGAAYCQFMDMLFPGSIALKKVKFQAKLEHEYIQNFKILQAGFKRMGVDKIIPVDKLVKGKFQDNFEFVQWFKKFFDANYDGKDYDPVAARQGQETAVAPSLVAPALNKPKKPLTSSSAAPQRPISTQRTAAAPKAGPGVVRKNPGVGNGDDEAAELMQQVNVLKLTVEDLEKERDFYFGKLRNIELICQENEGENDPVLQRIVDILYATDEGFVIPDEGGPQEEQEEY
p150 Nt-GCN4 (human p150Glued amino acids 1–210, GCN4 coiled-coil, linker, C-terminal 6×-His) (Q14203-1, form named): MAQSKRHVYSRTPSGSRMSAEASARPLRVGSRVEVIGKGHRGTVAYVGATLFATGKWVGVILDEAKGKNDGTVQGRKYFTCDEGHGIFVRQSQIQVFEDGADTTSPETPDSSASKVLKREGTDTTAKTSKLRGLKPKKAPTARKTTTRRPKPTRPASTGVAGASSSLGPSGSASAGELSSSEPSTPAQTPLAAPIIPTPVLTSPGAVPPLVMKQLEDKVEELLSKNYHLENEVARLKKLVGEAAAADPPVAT
p135 Nt-GCN4 (MMRQ, p150Glued amino acids 139–210, GCN4 coiled-coil, linker, C-terminal 6×-His) (Q14203-1, form named): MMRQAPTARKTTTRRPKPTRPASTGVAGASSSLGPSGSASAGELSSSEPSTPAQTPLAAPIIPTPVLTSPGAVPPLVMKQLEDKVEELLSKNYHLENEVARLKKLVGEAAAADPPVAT

In this experiment the target is recombinant full-length EB1 (UniProt Q15691). The experiment can be described thus: SEC; EB1 and p150 polypeptide run alone or pre-incubated in a 1∶2 ratio; analytical Superdex 200 10/300 GL, BRB20 pH 7.1 with 125 mM KCl and 10 mM imidazole, 4 °C; both purified.

In the case of “p150 Nt-GCN4 (human p150Glued amino acids 1–210, GCN4 coiled-coil, linker, C-terminal 6×-His) (from UniProt Q14203-1 1-210) (domain or fragment)”, the binding result was “binds”.

As for “p135 Nt-GCN4 (MMRQ, p150Glued amino acids 139–210, GCN4 coiled-coil, linker, C-terminal 6×-His) (from UniProt Q14203-1 139-210) (domain or fragment)”, the binding result is “no binding”.

Values taken from PMC3712912.
